In publication PMC11375261 one finds binding data, which are given here for six molecules.

Amino acid sequences for entries named in this document (tags omitted). A change or cut given only in a name is not applied to a line headed by its entry.
UniProt P19634: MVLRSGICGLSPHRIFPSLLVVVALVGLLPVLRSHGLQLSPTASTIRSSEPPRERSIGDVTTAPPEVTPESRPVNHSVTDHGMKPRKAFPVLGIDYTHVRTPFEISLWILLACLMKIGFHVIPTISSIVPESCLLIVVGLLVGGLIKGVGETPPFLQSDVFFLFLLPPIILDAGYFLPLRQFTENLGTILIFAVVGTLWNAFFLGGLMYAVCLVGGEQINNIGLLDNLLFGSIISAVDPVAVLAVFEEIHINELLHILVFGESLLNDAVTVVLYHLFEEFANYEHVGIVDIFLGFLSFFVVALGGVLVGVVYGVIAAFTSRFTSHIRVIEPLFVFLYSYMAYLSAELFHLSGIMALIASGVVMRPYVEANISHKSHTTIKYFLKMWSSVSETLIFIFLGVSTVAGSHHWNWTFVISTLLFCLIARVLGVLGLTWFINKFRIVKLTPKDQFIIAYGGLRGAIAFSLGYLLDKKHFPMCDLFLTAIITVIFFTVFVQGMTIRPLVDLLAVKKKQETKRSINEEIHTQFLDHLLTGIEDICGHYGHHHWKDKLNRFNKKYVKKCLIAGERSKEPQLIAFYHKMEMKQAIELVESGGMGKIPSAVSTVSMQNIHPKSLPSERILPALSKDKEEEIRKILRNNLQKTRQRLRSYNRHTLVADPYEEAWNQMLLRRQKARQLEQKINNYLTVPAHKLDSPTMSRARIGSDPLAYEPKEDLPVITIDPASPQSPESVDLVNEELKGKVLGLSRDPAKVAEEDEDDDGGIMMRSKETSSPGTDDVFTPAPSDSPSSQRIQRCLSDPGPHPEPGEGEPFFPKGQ

Test [1] concerns the target T1, c-Myc-GGA1 (mouse GGA1 in pCMV-c-Myc) (mouse) (UniProt Q8R0H9).
T1 sequence: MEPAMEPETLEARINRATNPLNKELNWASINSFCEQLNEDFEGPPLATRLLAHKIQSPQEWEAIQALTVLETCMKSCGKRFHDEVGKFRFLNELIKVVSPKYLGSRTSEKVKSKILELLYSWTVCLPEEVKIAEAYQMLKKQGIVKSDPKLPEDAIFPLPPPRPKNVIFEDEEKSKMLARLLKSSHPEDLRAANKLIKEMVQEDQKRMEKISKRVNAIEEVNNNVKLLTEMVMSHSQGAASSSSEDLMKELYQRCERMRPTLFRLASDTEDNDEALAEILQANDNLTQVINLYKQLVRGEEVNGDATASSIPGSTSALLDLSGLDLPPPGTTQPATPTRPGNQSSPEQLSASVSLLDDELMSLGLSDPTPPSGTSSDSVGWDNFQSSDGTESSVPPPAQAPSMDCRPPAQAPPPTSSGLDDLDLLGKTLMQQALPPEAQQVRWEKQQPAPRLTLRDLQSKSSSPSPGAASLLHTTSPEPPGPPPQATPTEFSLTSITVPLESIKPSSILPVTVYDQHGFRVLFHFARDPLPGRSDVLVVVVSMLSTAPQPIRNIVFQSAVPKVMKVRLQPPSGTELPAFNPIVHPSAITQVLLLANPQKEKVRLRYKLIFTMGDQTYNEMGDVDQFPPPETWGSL
The test can be described thus: co-IP; HEK293T cells cotransfected with c-Myc-GGA1 and an HA-tagged NHE construct; lysate precipitated with anti-c-Myc, blotted with anti-NHE6 or anti-HA.

The target of test [2] is T2, endogenous NHE6 of SH-SY5Y neuroblastoma cells (human (endogenous in SH-SY5Y)) (UniProt Q92581).
T2 sequence: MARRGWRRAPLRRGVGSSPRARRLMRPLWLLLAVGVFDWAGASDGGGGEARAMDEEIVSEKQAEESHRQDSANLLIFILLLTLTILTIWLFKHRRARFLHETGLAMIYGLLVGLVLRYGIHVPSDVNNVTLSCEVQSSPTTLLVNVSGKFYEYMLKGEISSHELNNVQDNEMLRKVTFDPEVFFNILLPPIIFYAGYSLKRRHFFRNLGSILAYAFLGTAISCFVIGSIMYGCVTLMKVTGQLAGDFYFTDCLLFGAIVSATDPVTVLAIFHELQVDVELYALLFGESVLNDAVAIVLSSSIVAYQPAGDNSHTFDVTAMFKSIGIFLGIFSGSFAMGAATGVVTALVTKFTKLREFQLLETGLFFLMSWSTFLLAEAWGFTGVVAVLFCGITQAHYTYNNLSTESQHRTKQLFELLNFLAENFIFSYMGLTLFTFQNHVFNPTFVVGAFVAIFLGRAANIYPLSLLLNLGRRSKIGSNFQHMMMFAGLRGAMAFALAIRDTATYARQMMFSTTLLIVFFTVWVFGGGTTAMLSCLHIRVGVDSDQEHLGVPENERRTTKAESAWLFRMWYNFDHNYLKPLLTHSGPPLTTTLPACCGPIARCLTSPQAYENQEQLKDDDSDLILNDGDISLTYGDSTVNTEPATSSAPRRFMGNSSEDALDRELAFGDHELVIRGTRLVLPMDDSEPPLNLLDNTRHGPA
In words: co-IP; endogenous proteins; SH-SY5Y lysate precipitated with anti-NHE6 (normal rabbit IgG as control), blotted with anti-GGA1.

Test [3] concerns the target T3, endogenous NHE6 of mouse brain (mouse (endogenous in brain tissue)) (UniProt A1L3P4).
T3 sequence: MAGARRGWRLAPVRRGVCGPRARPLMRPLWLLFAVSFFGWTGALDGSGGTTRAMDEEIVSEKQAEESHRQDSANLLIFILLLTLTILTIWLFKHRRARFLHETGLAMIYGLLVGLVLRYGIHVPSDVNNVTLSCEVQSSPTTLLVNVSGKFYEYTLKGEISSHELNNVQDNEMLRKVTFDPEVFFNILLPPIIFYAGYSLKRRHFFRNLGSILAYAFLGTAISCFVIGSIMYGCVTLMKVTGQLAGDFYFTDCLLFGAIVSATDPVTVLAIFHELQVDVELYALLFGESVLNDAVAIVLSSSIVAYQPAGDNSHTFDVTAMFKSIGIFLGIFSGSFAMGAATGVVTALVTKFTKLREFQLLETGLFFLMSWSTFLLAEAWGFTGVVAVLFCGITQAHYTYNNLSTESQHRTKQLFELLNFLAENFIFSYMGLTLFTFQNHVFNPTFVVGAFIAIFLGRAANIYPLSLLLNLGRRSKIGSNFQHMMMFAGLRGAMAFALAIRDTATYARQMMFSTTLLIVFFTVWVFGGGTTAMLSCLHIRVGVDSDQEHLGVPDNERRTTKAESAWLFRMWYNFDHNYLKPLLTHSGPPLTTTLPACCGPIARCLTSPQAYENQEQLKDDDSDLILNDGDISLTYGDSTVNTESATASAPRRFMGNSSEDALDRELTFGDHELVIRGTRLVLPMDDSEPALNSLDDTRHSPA
The test can be described thus: co-IP; endogenous proteins; homogenised cortical brain lysate of WT and NHE6-null mice (P0) precipitated with anti-NHE6 (normal rabbit IgG as control), blotted with anti-GGA1.

These are yes or no findings as the source states them, for the method shown. Binding seen in cells or lysates may run through a third protein. Some binding calls cover weakened binding; strength is not graded here. For part of these data: Where a sequence is shown, tags or fusion partners need not be part of it.

As to “mutagenesis (G720D) corrected hNHE1-HA (from UniProt P19634 1-815)”, in test [1], the binding entry is recorded as “binds weakly”.

B1: endogenous GGA1 of SH-SY5Y neuroblastoma cells (protein, UniProt Q9UJY5 1-639)
chain: MEPAMEPETLEARINRATNPLNKELDWASINGFCEQLNEDFEGPPLATRLLAHKIQSPQEWEAIQALTVLETCMKSCGKRFHDEVGKFRFLNELIKVVSPKYLGSRTSEKVKNKILELLYSWTVGLPEEVKIAEAYQMLKKQGIVKSDPKLPDDTTFPLPPPRPKNVIFEDEEKSKMLARLLKSSHPEDLRAANKLIKEMVQEDQKRMEKISKRVNAIEEVNNNVKLLTEMVMSHSQGGAAAGSSEDLMKELYQRCERMRPTLFRLASDTEDNDEALAEILQANDNLTQVINLYKQLVRGEEVNGDATAGSIPGSTSALLDLSGLDLPPAGTTYPAMPTRPGEQASPEQPSASVSLLDDELMSLGLSDPTPPSGPSLDGTGWNSFQSSDATEPPAPALAQAPSMESRPPAQTSLPASSGLDDLDLLGKTLLQQSLPPESQQVRWEKQQPTPRLTLRDLQNKSSSCSSPSSSATSLLHTVSPEPPRPPQQPVPTELSLASITVPLESIKPSNILPVTVYDQHGFRILFHFARDPLPGRSDVLVVVVSMLSTAPQPIRNIVFQSAVPKVMKVKLQPPSGTELPAFNPIVHPSAITQVLLLANPQKEKVRLRYKLTFTMGDQTYNEMGDVDQFPPPETWGSL
Take B1: the binding entry in test [2] was “binds”.

B2: HA-tagged human NHE5 (protein, UniProt Q14940 1-896)
chain: MLRAALSLLALPLAGAAEEPTQKPESPGEPPPGLELFRWQWHEVEAPYLVALWILVASLAKIVFHLSRKVTSLVPESCLLILLGLVLGGIVLAVAKKAEYQLEPGTFFLFLLPPIVLDSGYFMPSRLFFDNLGAILTYAVVGTLWNAFTTGAALWGLQQAGLVAPRVQAGLLDFLLFGSLISAVDPVAVLAVFEEVHVNETLFIIVFGESLLNDAVTVVLYKVCNSFVEMGSANVQATDYLKGVASLFVVSLGGAAVGLVFAFLLALTTRFTKRVRIIEPLLVFLLAYAAYLTAEMASLSAILAVTMCGLGCKKYVEANISHKSRTTVKYTMKTLASCAETVIFMLLGISAVDSSKWAWDSGLVLGTLIFILFFRALGVVLQTWVLNQFRLVPLDKIDQVVMSYGGLRGAVAFALVILLDRTKVPAKDYFVATTIVVVFFTVIVQGLTIKPLVKWLKVKRSEHHKPTLNQELHEHTFDHILAAVEDVVGHHGYHYWRDRWEQFDKKYLSQLLMRRSAYRIRDQIWDVYYRLNIRDAISFVDQGGHVLSSTGLTLPSMPSRNSVAETSVTNLLRESGSGACLDLQVIDTVRSGRDREDAVMHHLLCGGLYKPRRRYKASCSRHFISEDAQERQDKEVFQQNMKRRLESFKSTKHNICFTKSKPRPRKTGRRKKDGVANAEATNGKHRGLGFQDTAAVILTVESEEEEEESDSSETEKEDDEGIIFVARATSEVLQEGKVSGSLEVCPSPRIIPPSPTCAEKELPWKSGQGDLAVYVSSETTKIVPVDMQTGWNQSISSLESLASPPCNQAPILTCLPPHPRGTEEPQVPLHLPSDPRSSFAFPPSLAKAGRSRSESSADLPQQQELQPLMGHKDHTHLSPGTATSHWCIQFNRGSRL
Consider B2, for which the binding result in test [1] is “binds weakly”.

B3: endogenous GGA1 of mouse brain (protein, UniProt Q8R0H9 1-635)
chain: MEPAMEPETLEARINRATNPLNKELNWASINSFCEQLNEDFEGPPLATRLLAHKIQSPQEWEAIQALTVLETCMKSCGKRFHDEVGKFRFLNELIKVVSPKYLGSRTSEKVKSKILELLYSWTVCLPEEVKIAEAYQMLKKQGIVKSDPKLPEDAIFPLPPPRPKNVIFEDEEKSKMLARLLKSSHPEDLRAANKLIKEMVQEDQKRMEKISKRVNAIEEVNNNVKLLTEMVMSHSQGAASSSSEDLMKELYQRCERMRPTLFRLASDTEDNDEALAEILQANDNLTQVINLYKQLVRGEEVNGDATASSIPGSTSALLDLSGLDLPPPGTTQPATPTRPGNQSSPEQLSASVSLLDDELMSLGLSDPTPPSGTSSDSVGWDNFQSSDGTESSVPPPAQAPSMDCRPPAQAPPPTSSGLDDLDLLGKTLMQQALPPEAQQVRWEKQQPAPRLTLRDLQSKSSSPSPGAASLLHTTSPEPPGPPPQATPTEFSLTSITVPLESIKPSSILPVTVYDQHGFRVLFHFARDPLPGRSDVLVVVVSMLSTAPQPIRNIVFQSAVPKVMKVRLQPPSGTELPAFNPIVHPSAITQVLLLANPQKEKVRLRYKLIFTMGDQTYNEMGDVDQFPPPETWGSL
Take B3: the binding result in test [3] is reported as “binds”.

B4: HA-tagged mouse NHE9 (protein, UniProt Q8BZ00 1-644)
chain: MAGQLRFTSGKDEDHFQHQGAVELLAFNFLLILTILTIWLFKNHRFRFLHETGGAMVYGLIMGLILRYATAPTDIDSGTVYNCGNLFFSPSTLLVNITDQVYEYKYQREINQHNISPHQGNAILEKMTFDPEIFFNVLLPPIIFHAGYSLKKRHFFQNLGSILTYAFLGTAISCVVIGLIMYGFVKAMVHAGQLKSGDFHFTDCLFFGSLMSATDPVTVLAIFHELHVDPDLYTLLFGESVLNDAVAIVLTYSISIYSPKENPNAFDTAAFFQSVGNFLGIFAGSFAMGSAYAVVTALLTKFTKLREFPMLETGLFFLLSWSAFLSAEAAGLTGIVAVLFCGVTQAHYTYNNLSSDSKLRTKQLFEFMNFLAENVIFCYMGLALFTFQNHIFNALFILGAFLAIFVARACNIYPLSFLLNLGRKQKIPWNFQHMMMFSGLRGAIAFALAIRNTESQPKQMMFTTTLLLVFFTVWVFGGGTTPMLTWLQIRVGVDLDESLKEEPSSQQEANKLDKNMTKTESAQLFRMWYGFDHKYLKPILTHSGPPLTTTLPAWCGPVSRLLTSPQAYGEQLKEDDVECIVNQDELAMNYQEQSPSPSSPTTKLALDQKSSGQTPGKENIYEGDLGLGGYDLKLEQTRGQPQMD
For the molecule B4, the binding entry in test [1] is recorded as “binds”.

B5: HA-tagged human NHE7 (protein, UniProt Q96T83 1-725)
chain: MEPGDAARPGSGRATGAPPPRLLLLPLLLGWGLRVAAAASASSSGAAAEDSSAMEELATEKEAEESHRQDSVSLLTFILLLTLTILTIWLFKHRRVRFLHETGLAMIYGLIVGVILRYGTPATSGRDKSLSCTQEDRAFSTLLVNVSGKFFEYTLKGEISPGKINSVEQNDMLRKVTFDPEVFFNILLPPIIFHAGYSLKKRHFFRNLGSILAYAFLGTAVSCFIIGNLMYGVVKLMKIMGQLSDKFYYTDCLFFGAIISATDPVTVLAIFNELHADVDLYALLFGESVLNDAVAIVLSSSIVAYQPAGLNTHAFDAAAFFKSVGIFLGIFSGSFTMGAVTGVNANVTKFTKLHCFPLLETALFFLMSWSTFLLAEACGFTGVVAVLFCGITQAHYTYNNLSVESRSRTKQLFEVLHFLAENFIFSYMGLALFTFQKHVFSPIFIIGAFVAIFLGRAAHIYPLSFFLNLGRRHKIGWNFQHMMMFSGLRGAMAFALAIRDTASYARQMMFTTTLLIVFFTVWIIGGGTTPMLSWLNIRVGVEEPSEEDQNEHHWQYFRVGVDPDQDPPPNNDSFQVLQGDGPDSARGNRTKQESAWIFRLWYSFDHNYLKPILTHSGPPLTTTLPAWCGLLARCLTSPQVYDNQEPLREEDSDFILTEGDLTLTYGDSTVTANGSSSSHTASTSLEGSRRTKSSSEEVLERDLGMGDQKVSSRGTRLVFPLEDNA
As to B5, the binding result in test [1] is “binds”.
